This is one part of the list.

The chains behind the UniProt entries cited, without tags or fusion partners.
UniProt Q0JBA9, entry or part of it: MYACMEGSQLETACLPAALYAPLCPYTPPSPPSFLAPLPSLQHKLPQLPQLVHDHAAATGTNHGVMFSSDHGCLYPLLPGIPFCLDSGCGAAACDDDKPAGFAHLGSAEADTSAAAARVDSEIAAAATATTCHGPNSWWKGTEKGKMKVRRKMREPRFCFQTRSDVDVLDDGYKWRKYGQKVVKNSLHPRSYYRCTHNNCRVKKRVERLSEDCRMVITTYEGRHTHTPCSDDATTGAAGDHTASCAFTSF

In this assay the target is OsWRKY34 (Oryza sativa, UniProt Q0JBA9 1-250). The assay can be described thus: protein-binding microarray (RPBM); PBS, 2% BSA, 51.3 ng/ul salmon testes DNA, 50 uM zinc acetate, 200 nM TF, 25 C, 1 h; high values mean tight binding. The note with it: protein: recombinant; tags: N-terminal polyhistidine and DsRed monomer fusion (pET32a); label: CyDye5-dUTP incorporated in the synthesized complementary strand; 3' TTTTT single-stranded linker to array surface; dsDNA, one strand shown. In a few lines:
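The binding signal is fluorescence intensity per feature, in arbitrary units, read on an Axon 4000B scanner. Polyhistidine- and DsRed-tagged transcription factors (N-terminal fusions) from E. coli BL21-CodonPlus were purified on Ni–NTA and applied at 200 nM for 1 h at 25 °C to a double-stranded, BSA-blocked custom Agilent array in buffer with 50 µM zinc acetate.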
Consider “CCTATCTATGTATTTGTTGGCGTCCAACGGCTATGATCATCGGAGTCACCTAGTGCAG”, for which the binding signal is 8690 fluorescence intensity (a.u.).

“TTTTACACTTCAGTTTTGTTCTTGTTTTTCCAGGCGTATACGGAGTCACCTAGTGCAG”: the binding signal was 8170 fluorescence intensity (a.u.).

Turning to “AGGTTCTGTCCATCTTCACCTCTCCTATTCCATATCATCACGGAGTCACCTAGTGCAG”, the binding signal is 10700 fluorescence intensity (a.u.).

Take “ACTCTCAACCACCTGCAGCATGCAACTTCCATGATGCCTCCGGAGTCACCTAGTGCAG”: the binding signal is 8370 fluorescence intensity (a.u.).

With “CTGCATGCTCTGTTTCTTCGAGGTTTATGTCAGTCGAAGACGGAGTCACCTAGTGCAG”, the binding signal is 8180 fluorescence intensity (a.u.).

Consider “GTGAAGGGCGCCCGCGGCGGTGGGGCGGCGGTGGTGGCGGCGGAGTCACCTAGTGCAG”, for which the binding signal is 9650 fluorescence intensity (a.u.).

With “TCTGTTTTACAATTGTATTCCTGTCAGAATCCTGTGCTTTCGGAGTCACCTAGTGCAG”, the binding signal was 9350 fluorescence intensity (a.u.).

Consider “GTTGCTTGGGATCACGTTTCTTGACTTTTGTAGGATTTAGCGGAGTCACCTAGTGCAG”, for which the binding signal was 8830 fluorescence intensity (a.u.).

As to “TAATCCTAATCCCAGAACTATCCCATGTTTTGCATCATACCGGAGTCACCTAGTGCAG”, the binding signal is 9500 fluorescence intensity (a.u.).

Turning to “CTTCGGCGCCGGAGCAGGGCGGCGGCGCAGGCGAAGGCGGCGGAGTCACCTAGTGCAG”, the binding signal was 15100 fluorescence intensity (a.u.).

Consider “ATTTTTTTTTCCTTATACATTTCCTTTGCTTTTTTTTTTACGGAGTCACCTAGTGCAG”, for which the binding signal is 9020 fluorescence intensity (a.u.).

With “TGGGGAGGCAGGAGTGCATGTTGGGGAGGAGACGATGACGCGGAGTCACCTAGTGCAG”, the binding signal was 10200 fluorescence intensity (a.u.).

Regarding “TTTTTAACTTTTTTATAACTTTTTGAACGTCATGCACACACGGAGTCACCTAGTGCAG”, the binding signal was 8500 fluorescence intensity (a.u.).

With “GACGCTGTTGACTTTTTCTCACATGTTTGACCATTCGTCTCGGAGTCACCTAGTGCAG”, the binding signal was 28900 fluorescence intensity (a.u.).

Turning to “CATGTGTTTTAGGGTTGTTTATTTTAAGACGGCGAAAGTACGGAGTCACCTAGTGCAG”, the binding signal is 12300 fluorescence intensity (a.u.).

Regarding “TATCTACAGTACCATAACTTATATTTTGGTTTACCATCGACGGAGTCACCTAGTGCAG”, the binding signal was 9950 fluorescence intensity (a.u.).

For the sequence “TTTATTCGATTCGTTCTGTTCCTACTCACGCCGTGTCAGACGGAGTCACCTAGTGCAG”, the binding signal is 11600 fluorescence intensity (a.u.).

Regarding “GGGATGTTTGGTGTACTTTTTCCTCCTACTAATGTCCCAACGGAGTCACCTAGTGCAG”, the binding signal is 9570 fluorescence intensity (a.u.).

Turning to “TTCTTCTTCAATCTGGGGCTGTCTCCCAGCTTGTTCATTTCGGAGTCACCTAGTGCAG”, the binding signal was 8340 fluorescence intensity (a.u.).

As to “GGCGGGGTTGGGGCGGCAGGCGGCTGTGAGGTTCTTGATTCGGAGTCACCTAGTGCAG”, the binding signal is 16100 fluorescence intensity (a.u.).

In the case of “AAGTGTTTTTATTTTTGTCATATCTATCATATTTAATTTCCGGAGTCACCTAGTGCAG”, the binding signal was 10100 fluorescence intensity (a.u.).

In the case of “GCCCAGATTCATAGTTCTAGAATACGTCCCATCAGGTTTTCGGAGTCACCTAGTGCAG”, the binding signal is 8230 fluorescence intensity (a.u.).

For the sequence “GATTCCGAAACGGCTAAAACCGCTTTCACACTGCCTCTTTCGGAGTCACCTAGTGCAG”, the binding signal was 8670 fluorescence intensity (a.u.).

Turning to “TTTTGGTACGTTATCCGTGTTTGAATCGGTTTTTAAGTTCCGGAGTCACCTAGTGCAG”, the binding signal is 10800 fluorescence intensity (a.u.).

For the sequence “CTTTCGCCTCATCATCTTCGCCTGTGCGGTCCTTTGACAACGGAGTCACCTAGTGCAG”, the binding signal is 8550 fluorescence intensity (a.u.).

Turning to “TGTATCCCTATTCTTATTCTACCTTGTTCTAGTCAAACACCGGAGTCACCTAGTGCAG”, the binding signal is 10300 fluorescence intensity (a.u.).

For “TAATATTTGTAGTGTTCGAGTAGGAATCTGTTTTTATTTTCGGAGTCACCTAGTGCAG”, the binding signal is 8780 fluorescence intensity (a.u.).

Consider “GCATACCTCTTCAGCTTTTCTTAGGTCCCATTCTTCTCTCCGGAGTCACCTAGTGCAG”, for which the binding signal was 11400 fluorescence intensity (a.u.).

Regarding “TATGATCTTTCTATGCTTAAGGTTCCTCATGACATAACTGCGGAGTCACCTAGTGCAG”, the binding signal is 10000 fluorescence intensity (a.u.).

As to “CGACGGTTTGGATTATTTCTACTTGTAGTATATACTACAACGGAGTCACCTAGTGCAG”, the binding signal was 8410 fluorescence intensity (a.u.).

As for “GCATCACTATTCACTCCATGTTCTCTCTTCCTACTCTCCACGGAGTCACCTAGTGCAG”, the binding signal was 8250 fluorescence intensity (a.u.).

Consider “TGCTTTTCAGTTACGTTCTCCGTTAGTCCGTTTTGCTTTTCGGAGTCACCTAGTGCAG”, for which the binding signal was 11200 fluorescence intensity (a.u.).

“TGTGTCATGTTCTGATTGGCTGTGGTTGGTTTGATTTTCTCGGAGTCACCTAGTGCAG”: the binding signal was 10600 fluorescence intensity (a.u.).

In the case of “GCTTTTGAATGTAATCGTTGCGACAACGCCGTTGCCCTTGCGGAGTCACCTAGTGCAG”, the binding signal was 8640 fluorescence intensity (a.u.).

For the sequence “AACGCTCACTGTTCATCGCCGTAATTAAATTAAATTAAATCGGAGTCACCTAGTGCAG”, the binding signal was 8660 fluorescence intensity (a.u.).

As for “TGGGACTCGCCCTGTGCATTTCCGTGGCGATCGCTTCTGACGGAGTCACCTAGTGCAG”, the binding signal was 8220 fluorescence intensity (a.u.).

Turning to “TCTGTTTCAGGTTATAAGATGTTTTGACTTTGGTCAAAGTCGGAGTCACCTAGTGCAG”, the binding signal is 8030 fluorescence intensity (a.u.).

For the sequence “GATATTTAGTCACTATTCACTCACAAAATTTGTTGCATTTCGGAGTCACCTAGTGCAG”, the binding signal is 11200 fluorescence intensity (a.u.).

Take “CGCCTCCGTCGCCATCCCGCTCGCCCTCGCCGCCTCCAGCCGGAGTCACCTAGTGCAG”: the binding signal is 10900 fluorescence intensity (a.u.).

Regarding “CGCCGACGGTCAGCCTCCACACCCCGGCTTCTCTCCCGCGCGGAGTCACCTAGTGCAG”, the binding signal was 8820 fluorescence intensity (a.u.).

On to “GCTCAGATTGTTCATCAAGTTTTTCCTCTGTGCTCTGTTTCGGAGTCACCTAGTGCAG”, for which the binding signal is 8890 fluorescence intensity (a.u.).

In the case of “CCCCGCCGCCGTTCCCGCCATCAGCTGCCGCCACCCTGGGCGGAGTCACCTAGTGCAG”, the binding signal is 9890 fluorescence intensity (a.u.).

Values taken from paper PMC7819943, “Rice protein-binding microarrays: a tool to detect cis-acting elements near promoter regions in rice”.
